# Data reported in PMC7819943, “Rice protein-binding microarrays: a tool to detect cis-acting elements near promoter regions in rice”.
# Amino acid sequences for entries named in this document (tags omitted).
# UniProt Q0JBA9, entry or part of it: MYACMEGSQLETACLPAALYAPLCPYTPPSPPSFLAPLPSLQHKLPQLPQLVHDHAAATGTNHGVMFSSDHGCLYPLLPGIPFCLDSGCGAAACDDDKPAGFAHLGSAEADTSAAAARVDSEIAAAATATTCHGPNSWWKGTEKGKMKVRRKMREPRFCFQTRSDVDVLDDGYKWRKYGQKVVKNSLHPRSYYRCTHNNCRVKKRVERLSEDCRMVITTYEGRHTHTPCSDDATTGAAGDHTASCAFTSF
# This is one part of the list.
# Target: OsWRKY34 (Oryza sativa, UniProt Q0JBA9 1-250)
# Test: protein-binding microarray (RPBM); PBS, 2% BSA, 51.3 ng/ul salmon testes DNA, 50 uM zinc acetate, 200 nM TF, 25 C, 1 h; high values mean tight binding
# Conditions: protein: recombinant; tags: N-terminal polyhistidine and DsRed monomer fusion (pET32a); label: CyDye5-dUTP incorporated in the synthesized complementary strand; 3' TTTTT single-stranded linker to array surface; dsDNA, one strand shown
# Outline: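 Binding signal is defined as the fluorescence intensity of each feature in arbitrary units, read on an Axon 4000B scanner. Transcription factors with N-terminal polyhistidine and DsRed fusions came from E. coli BL21-CodonPlus and were purified on Ni–NTA. They were incubated at 200 nM for 1 h at 25 °C on a custom Agilent array that had been made double-stranded with Cy5-dUTP, with 50 µM zinc acetate present, and the array was washed.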
row,Sequence,binding signal
1,CTCAGATAATTGCCTTCCATGTGTTGTTTTGTTAGATGTGCGGAGTCACCTAGTGCAG,8650 fluorescence intensity (a.u.)
2,CCCCGCTGCTGTTCGTGTGGCAAGATTTGCTGCCACTGTTCGGAGTCACCTAGTGCAG,9630 fluorescence intensity (a.u.)
3,CGGCGCGGCGGAAGGAGGAGGGGTGGTGGATTCGTAGGGGCGGAGTCACCTAGTGCAG,14600 fluorescence intensity (a.u.)
4,CCACCACATATTTTCACCGCTTCTCATTTTTCCCTTCGCTCGGAGTCACCTAGTGCAG,11100 fluorescence intensity (a.u.)
5,CTCACATCGCATCATCGACATCTCTTCTCAGCAGCAGCCACGGAGTCACCTAGTGCAG,10900 fluorescence intensity (a.u.)
6,AGGACCATGGATTAGATTTTGATCACTTACTTTTAAGAGTCGGAGTCACCTAGTGCAG,8240 fluorescence intensity (a.u.)
7,CCCTTTCCCCGCCGCCGCCATCACGTGGTCCTTGAGGAACCGGAGTCACCTAGTGCAG,10100 fluorescence intensity (a.u.)
8,TCTTCCCGGACTGTTAGTTGTTACTTTAGAAAATGTTTTACGGAGTCACCTAGTGCAG,12000 fluorescence intensity (a.u.)
9,GACCGCTCTCTCCGTTTTCCTCCTTTCTTGCGACTTCCACCGGAGTCACCTAGTGCAG,11900 fluorescence intensity (a.u.)
10,GTTCATCCGTCAGTGGCCCCTCTTCCTTTTCCATTATCATCGGAGTCACCTAGTGCAG,8880 fluorescence intensity (a.u.)
11,GCAAACAAAGGAGAATGACCCGATTACCTTTTTATTCTCTCGGAGTCACCTAGTGCAG,8350 fluorescence intensity (a.u.)
12,GGGAGGGAGACGAGAAAAGGTGTTGACGTGCCGTCATCCACGGAGTCACCTAGTGCAG,10700 fluorescence intensity (a.u.)
13,GTTCCACATCTTAATAGCAGTCATTTAGATGTACTTTTGACGGAGTCACCTAGTGCAG,8160 fluorescence intensity (a.u.)
14,CGTCTGACTTCGCGTCACTCCCTGCTCTAGGCGACTCCGCCGGAGTCACCTAGTGCAG,9420 fluorescence intensity (a.u.)
15,AAAATCAATGATTAGCTGAGCCCAGATCCCAACTTTTTCTCGGAGTCACCTAGTGCAG,8130 fluorescence intensity (a.u.)
16,TCTCCAGGATAAATTTACGCATATAATTTTTGTTTCTTTTCGGAGTCACCTAGTGCAG,10500 fluorescence intensity (a.u.)
17,GTATTATTCTGATTTCAAATTACCCGATCTTACATAACATCGGAGTCACCTAGTGCAG,8120 fluorescence intensity (a.u.)
18,TCTTATATTCGAAGGAAGTTATCGATCTTTTTGTTTGACCCGGAGTCACCTAGTGCAG,8740 fluorescence intensity (a.u.)
19,CTGTATCCTGTTTTGTTTTCTCTATATTTATTATTTTTGTCGGAGTCACCTAGTGCAG,11100 fluorescence intensity (a.u.)
20,CGACGCAACACCACACTACTCTTCTCGTCTCGTCTCCCTCCGGAGTCACCTAGTGCAG,14600 fluorescence intensity (a.u.)
21,TTTACTCGAACACCACTGGTTCTTGTGCTAATCACATCTACGGAGTCACCTAGTGCAG,8370 fluorescence intensity (a.u.)

row,Sequence,binding signal
1,CACTATAACTGCCATGCCACCTGTGCATATTATGTTGTCGCGGAGTCACCTAGTGCAG,11400 fluorescence intensity (a.u.)
2,CTCTTGTTGTGTATCTGCATTTCTTCCCTAGTGATACTAGCGGAGTCACCTAGTGCAG,13800 fluorescence intensity (a.u.)
3,ACTGTATTGGTCTCGAGTACTTTTTGGAGGATATCTAGCTCGGAGTCACCTAGTGCAG,9500 fluorescence intensity (a.u.)
4,CCGCTACAACACTCAACACCATACCACATGTCATCTCCGTCGGAGTCACCTAGTGCAG,8060 fluorescence intensity (a.u.)
5,AGTATATACTAGTAATATCTACGGGCCTGTTCACTTTAATCGGAGTCACCTAGTGCAG,8370 fluorescence intensity (a.u.)
6,TGCTTGACGATTCATCGATGTCCTTGTACCGTGCCTTCGGCGGAGTCACCTAGTGCAG,8400 fluorescence intensity (a.u.)
7,AGCATCCTACCGATTTCCGGTCATTTTTCTCCTACGACATCGGAGTCACCTAGTGCAG,9210 fluorescence intensity (a.u.)
8,CAAGAGAGTGGGTACGGGGCCCTCAAAATTGCAGGGGCGGCGGAGTCACCTAGTGCAG,8460 fluorescence intensity (a.u.)
9,TCTTCGTCCGTCACTCGTGGCACGCAGTTTTAACCCTAGGCGGAGTCACCTAGTGCAG,8450 fluorescence intensity (a.u.)
10,TTTTCGCTTTAAATTTGTTCCAATATTTATCTACCGTTCCCGGAGTCACCTAGTGCAG,8940 fluorescence intensity (a.u.)
11,GTTATTAGTCTACGTTTAATACTTCAAATGTGTGTCCTTACGGAGTCACCTAGTGCAG,8640 fluorescence intensity (a.u.)
12,CGGGGATCCGCTCCGCCGTCTCGCCTCCCGCCCCGTGGATCGGAGTCACCTAGTGCAG,8950 fluorescence intensity (a.u.)
13,ATCTGAATCGTCCATTATCCATCATTCATTTATCATCTACCGGAGTCACCTAGTGCAG,8390 fluorescence intensity (a.u.)
14,CGCTGATGCGCGTGTGATGATTGCTGTGGTTTTATTCTCCCGGAGTCACCTAGTGCAG,9730 fluorescence intensity (a.u.)
15,CACACTTTTCTTCTGTACCATTTCGCCGAGCTTTACCCCGCGGAGTCACCTAGTGCAG,9010 fluorescence intensity (a.u.)
16,CCGCCCAGTGGTTGTGCAATCGGGGTTGTTGGGGCAGCATCGGAGTCACCTAGTGCAG,12200 fluorescence intensity (a.u.)
17,CAGTTTTCCTTGGTTCATTCTACGATACTTGCTAATTAATCGGAGTCACCTAGTGCAG,9430 fluorescence intensity (a.u.)
18,CCTTTTTCAACTCCACATTCACTTCTTTTCGGCCATGCTGCGGAGTCACCTAGTGCAG,10100 fluorescence intensity (a.u.)
19,AGTAGTGATCACCTCTGCGCTCTTGTCGTCCTCACCGCCACGGAGTCACCTAGTGCAG,9600 fluorescence intensity (a.u.)
20,GACGGTTTGGTACTTCGATCTGATTATTGCATTCTCTCGTCGGAGTCACCTAGTGCAG,8100 fluorescence intensity (a.u.)
21,TTTCTCTCCTACGTACACGCACGCGCGGTAACGAGTTAACCGGAGTCACCTAGTGCAG,8350 fluorescence intensity (a.u.)

# A different layout for part of the listing above:
row	Sequence	binding signal
10	GTTCATCCGTCAGTGGCCCCTCTTCCTTTTCCATTATCATCGGAGTCACCTAGTGCAG	8880 fluorescence intensity (a.u.)
11	GCAAACAAAGGAGAATGACCCGATTACCTTTTTATTCTCTCGGAGTCACCTAGTGCAG	8350 fluorescence intensity (a.u.)
12	GGGAGGGAGACGAGAAAAGGTGTTGACGTGCCGTCATCCACGGAGTCACCTAGTGCAG	10700 fluorescence intensity (a.u.)
13	GTTCCACATCTTAATAGCAGTCATTTAGATGTACTTTTGACGGAGTCACCTAGTGCAG	8160 fluorescence intensity (a.u.)
